The target of test [1] is RECQL5 helicase (human (endogenous in U2OS)) (UniProt O94762). In words: co-IP; endogenous proteins from U2OS lysates, cells with or without HU (2 mM, 4 h); HEPES-Triton buffer (35 mM HEPES KOH pH 7.6, 200 mM NaCl, 1 mM EDTA, 0.75% Triton X-100, 8% glycerol), 3 ug antibody overnight at 4 C, protein A beads; without benzonase treatment; immunoblot.
Test [2] addresses T1, RTEL1 helicase (human (endogenous in U2OS)) (UniProt Q9NZ71).
T1 sequence: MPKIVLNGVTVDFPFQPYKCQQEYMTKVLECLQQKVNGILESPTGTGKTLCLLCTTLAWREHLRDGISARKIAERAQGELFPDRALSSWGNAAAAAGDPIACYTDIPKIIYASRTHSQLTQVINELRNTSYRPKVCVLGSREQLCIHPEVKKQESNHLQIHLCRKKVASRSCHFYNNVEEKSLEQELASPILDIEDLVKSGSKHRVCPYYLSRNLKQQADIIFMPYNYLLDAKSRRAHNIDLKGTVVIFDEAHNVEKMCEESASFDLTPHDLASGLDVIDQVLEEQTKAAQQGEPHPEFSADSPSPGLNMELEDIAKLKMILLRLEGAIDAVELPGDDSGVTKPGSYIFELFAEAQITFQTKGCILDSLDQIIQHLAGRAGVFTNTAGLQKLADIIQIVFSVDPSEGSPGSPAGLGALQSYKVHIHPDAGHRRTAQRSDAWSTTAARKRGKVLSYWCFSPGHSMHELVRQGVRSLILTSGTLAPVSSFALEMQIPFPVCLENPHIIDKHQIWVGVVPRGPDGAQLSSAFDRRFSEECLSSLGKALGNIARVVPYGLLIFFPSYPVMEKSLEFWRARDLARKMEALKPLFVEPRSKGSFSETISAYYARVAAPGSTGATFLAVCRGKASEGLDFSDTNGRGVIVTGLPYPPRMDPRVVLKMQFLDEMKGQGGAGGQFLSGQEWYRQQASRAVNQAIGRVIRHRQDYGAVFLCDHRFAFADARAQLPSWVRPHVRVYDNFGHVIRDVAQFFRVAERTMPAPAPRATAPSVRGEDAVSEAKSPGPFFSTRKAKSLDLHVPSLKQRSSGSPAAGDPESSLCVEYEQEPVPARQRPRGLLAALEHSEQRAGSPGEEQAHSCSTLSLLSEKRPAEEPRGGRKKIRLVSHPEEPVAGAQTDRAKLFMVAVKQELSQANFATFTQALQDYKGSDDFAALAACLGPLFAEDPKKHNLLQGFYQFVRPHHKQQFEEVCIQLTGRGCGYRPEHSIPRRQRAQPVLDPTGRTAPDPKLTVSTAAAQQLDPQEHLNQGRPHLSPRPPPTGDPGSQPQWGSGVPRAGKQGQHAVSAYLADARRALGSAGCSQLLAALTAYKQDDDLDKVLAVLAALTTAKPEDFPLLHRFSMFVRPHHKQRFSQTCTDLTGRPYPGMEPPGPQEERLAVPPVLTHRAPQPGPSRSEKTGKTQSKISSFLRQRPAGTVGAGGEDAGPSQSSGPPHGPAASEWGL
Described as above.

Protein sequences, listed by entry. Tags and fused reporters are not part of them.
UniProt O94762: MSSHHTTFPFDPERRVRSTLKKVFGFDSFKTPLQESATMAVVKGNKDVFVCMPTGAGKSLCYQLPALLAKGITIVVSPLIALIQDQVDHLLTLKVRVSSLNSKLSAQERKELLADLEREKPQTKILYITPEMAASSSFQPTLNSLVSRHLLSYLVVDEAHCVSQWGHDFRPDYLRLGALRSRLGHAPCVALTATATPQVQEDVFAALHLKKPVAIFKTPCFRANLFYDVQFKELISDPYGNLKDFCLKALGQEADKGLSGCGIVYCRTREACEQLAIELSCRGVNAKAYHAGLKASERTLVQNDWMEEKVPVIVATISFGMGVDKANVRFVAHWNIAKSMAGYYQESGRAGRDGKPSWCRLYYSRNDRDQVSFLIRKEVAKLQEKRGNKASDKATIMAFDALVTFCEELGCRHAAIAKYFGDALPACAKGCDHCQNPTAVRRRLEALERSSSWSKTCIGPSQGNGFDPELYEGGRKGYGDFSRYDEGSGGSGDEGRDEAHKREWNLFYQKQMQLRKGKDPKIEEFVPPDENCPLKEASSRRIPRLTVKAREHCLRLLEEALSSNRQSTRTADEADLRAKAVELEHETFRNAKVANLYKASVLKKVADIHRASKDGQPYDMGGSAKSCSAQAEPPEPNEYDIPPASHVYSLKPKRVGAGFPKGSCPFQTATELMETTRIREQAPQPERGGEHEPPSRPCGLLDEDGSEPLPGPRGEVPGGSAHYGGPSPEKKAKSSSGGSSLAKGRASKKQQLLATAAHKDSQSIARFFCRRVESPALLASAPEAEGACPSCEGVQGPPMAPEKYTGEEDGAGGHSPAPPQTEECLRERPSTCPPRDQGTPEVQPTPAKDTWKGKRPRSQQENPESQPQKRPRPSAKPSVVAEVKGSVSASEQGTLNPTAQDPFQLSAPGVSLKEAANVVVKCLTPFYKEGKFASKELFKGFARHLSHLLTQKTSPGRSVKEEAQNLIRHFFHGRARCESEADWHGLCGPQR
UniProt Q06609: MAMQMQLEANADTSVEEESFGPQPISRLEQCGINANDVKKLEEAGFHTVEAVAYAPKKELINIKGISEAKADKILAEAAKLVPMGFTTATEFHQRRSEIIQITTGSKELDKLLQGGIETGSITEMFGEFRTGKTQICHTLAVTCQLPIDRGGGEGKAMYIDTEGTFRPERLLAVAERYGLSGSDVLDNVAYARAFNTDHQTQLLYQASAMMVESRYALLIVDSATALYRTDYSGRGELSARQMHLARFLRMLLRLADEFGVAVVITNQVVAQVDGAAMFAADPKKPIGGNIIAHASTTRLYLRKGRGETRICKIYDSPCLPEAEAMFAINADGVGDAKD

Our source for the binding values is article PMC12526125.

No constants are given. Whether binding was seen depends on the method and setting. Binding seen in cells or lysates may run through a third protein. Some binding calls cover weakened binding; strength is not graded here.

Regarding “RAD51 recombinase (from UniProt Q06609 1-339)”, the binding entry in test [1] and in test [2] was “binds” in each case. On to “RECQL5 helicase (from UniProt O94762 1-991)”, for which the binding result in test [2] was “binds”.

B1: RTEL1 helicase (protein, UniProt Q9NZ71 1-1219)
chain: T1 sequence
Take B1: the binding entry in test [1] was “binds”.
